These results are taken from publication PMC13239758.

The chains behind the UniProt entries cited, without tags or fusion partners.
UniProt Q8R4B8: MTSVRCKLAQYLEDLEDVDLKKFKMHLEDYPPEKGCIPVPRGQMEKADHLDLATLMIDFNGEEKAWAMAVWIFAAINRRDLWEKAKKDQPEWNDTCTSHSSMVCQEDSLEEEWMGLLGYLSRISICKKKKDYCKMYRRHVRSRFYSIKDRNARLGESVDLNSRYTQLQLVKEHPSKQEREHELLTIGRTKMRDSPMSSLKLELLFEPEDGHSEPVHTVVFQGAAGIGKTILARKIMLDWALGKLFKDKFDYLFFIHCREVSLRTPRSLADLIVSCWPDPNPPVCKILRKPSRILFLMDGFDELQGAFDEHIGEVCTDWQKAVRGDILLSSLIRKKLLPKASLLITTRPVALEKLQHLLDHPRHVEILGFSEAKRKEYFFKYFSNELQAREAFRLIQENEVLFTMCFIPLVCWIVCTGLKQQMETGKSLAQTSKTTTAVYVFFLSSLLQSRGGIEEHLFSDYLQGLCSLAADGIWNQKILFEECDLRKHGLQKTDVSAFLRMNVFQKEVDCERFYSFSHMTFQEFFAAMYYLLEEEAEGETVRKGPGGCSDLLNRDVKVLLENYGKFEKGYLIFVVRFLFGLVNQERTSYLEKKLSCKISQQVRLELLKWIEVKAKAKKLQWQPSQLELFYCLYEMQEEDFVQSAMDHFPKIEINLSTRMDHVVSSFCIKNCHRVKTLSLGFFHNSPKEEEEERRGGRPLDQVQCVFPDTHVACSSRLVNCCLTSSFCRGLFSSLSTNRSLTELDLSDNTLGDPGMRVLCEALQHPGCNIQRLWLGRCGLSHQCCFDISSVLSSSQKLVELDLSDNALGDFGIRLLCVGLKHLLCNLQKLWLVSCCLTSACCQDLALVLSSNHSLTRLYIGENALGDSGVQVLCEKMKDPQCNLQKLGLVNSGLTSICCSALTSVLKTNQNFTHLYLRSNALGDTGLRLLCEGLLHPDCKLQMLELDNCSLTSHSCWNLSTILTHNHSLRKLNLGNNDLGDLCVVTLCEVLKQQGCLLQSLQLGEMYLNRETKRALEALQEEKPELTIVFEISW

Assay [1] deals with T1, CD63 (endogenous, mouse BMMCs) (mouse (endogenous in BMMCs)) (UniProt P41731).
T1 sequence: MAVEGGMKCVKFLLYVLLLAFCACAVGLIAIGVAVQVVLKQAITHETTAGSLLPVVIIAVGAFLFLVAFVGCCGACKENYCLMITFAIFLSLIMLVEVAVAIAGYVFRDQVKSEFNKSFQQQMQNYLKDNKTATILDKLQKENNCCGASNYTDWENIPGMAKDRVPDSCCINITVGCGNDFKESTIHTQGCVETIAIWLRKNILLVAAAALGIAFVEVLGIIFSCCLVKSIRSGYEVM
Put plainly: SEC; lysate of WT BMMCs stimulated with IgE–Ag for 5 min; Sephacryl 100 HR, 50 mM Tris-HCl pH 7.4, 150 mM NaCl, 1% octyl glucoside; fractions immunoblotted for NLRP3, ASC, caspase-1, CD63. (In general: In gel filtration, larger molecules generally elute earlier.)

Assay [2] concerns the target T1, CD63 (endogenous, mouse BMMCs) (mouse (endogenous in BMMCs)). The assay can be described thus: condition: only cells pretreated with CAY-10736 or oridonin (10 μM); co-IP; endogenous proteins; IgE–Ag-stimulated WT BMMCs pretreated with CAY-10736 (10 μM) or oridonin (10 μM) for 30 min; IP of CD63, immunoblot. In general terms: In western blotting, separated proteins are transferred to a membrane and probed.

Assay [3] has the same target. The assay can be described thus: co-IP; endogenous proteins; IgE-sensitised WT (also Asc−/−) BMMCs untreated or stimulated with Ag (DNP-BSA 1 μg/ml) for 3-30 min; 1 mg pre-cleared lysate in IP lysis buffer, 1 μg antibody to CD63, NLRP3, ASC, NEK7 or Pyk2 overnight at 4 °C, G-plus agarose, immunoblot; some samples pretreated with BAPTA-AM, CAY-10736, oridonin or CY-09.

Assay [4] has the same target. The assay can be described thus: condition: only cells pretreated with PF-431396 (10 μM); co-IP; endogenous proteins; IgE–Ag-stimulated WT BMMCs pretreated with PF-431396 (10 μM) for 30 min; IP of Pyk2 or CD63, immunoblot.
Assay [5] has the same target. Put plainly: SEC; lysate of WT BMMCs treated with LPS (12 h)/nigericin (15 min); Sephacryl 100 HR, 50 mM Tris-HCl pH 7.4, 150 mM NaCl, 1% octyl glucoside; fractions immunoblotted for NLRP3, ASC, caspase-1, CD63.

No constants are given. Whether binding was seen depends on the method and setting. For some assays here: Binding seen in cells or lysates may run through a third protein. Some results given as binding are weak or reduced against the parent protein; the word gives no strength.

Regarding “NLRP3 (endogenous, mouse BMMCs) (from UniProt Q8R4B8 1-1033)”, the binding entry in assay [1] is on record as “binds”; in assay [2], “no binding”; in assay [3] it was “binds”; in assay [4], “no binding”; in assay [5], “binds weakly”.
